Laboratory results from the supplement of paper PMC7666118.
Some of the results follow.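 The calls were made as follows: active = dose-dependent thermal stabilisation significant by F-test of dose-response against flat model at 10% FDR; inactive = not significant.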

Amino acid sequences for entries named in this document (tags omitted). A change or cut given only in a name is not applied to a line headed by its entry.
UniProt Q9NVS9: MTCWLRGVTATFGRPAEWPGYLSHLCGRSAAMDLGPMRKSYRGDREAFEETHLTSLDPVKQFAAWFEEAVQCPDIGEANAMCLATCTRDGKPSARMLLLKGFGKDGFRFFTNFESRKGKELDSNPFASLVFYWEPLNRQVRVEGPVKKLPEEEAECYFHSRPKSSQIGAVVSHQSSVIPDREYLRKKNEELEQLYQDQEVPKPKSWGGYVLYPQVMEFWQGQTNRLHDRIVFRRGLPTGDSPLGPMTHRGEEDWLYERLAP
UniProt Q9Y263: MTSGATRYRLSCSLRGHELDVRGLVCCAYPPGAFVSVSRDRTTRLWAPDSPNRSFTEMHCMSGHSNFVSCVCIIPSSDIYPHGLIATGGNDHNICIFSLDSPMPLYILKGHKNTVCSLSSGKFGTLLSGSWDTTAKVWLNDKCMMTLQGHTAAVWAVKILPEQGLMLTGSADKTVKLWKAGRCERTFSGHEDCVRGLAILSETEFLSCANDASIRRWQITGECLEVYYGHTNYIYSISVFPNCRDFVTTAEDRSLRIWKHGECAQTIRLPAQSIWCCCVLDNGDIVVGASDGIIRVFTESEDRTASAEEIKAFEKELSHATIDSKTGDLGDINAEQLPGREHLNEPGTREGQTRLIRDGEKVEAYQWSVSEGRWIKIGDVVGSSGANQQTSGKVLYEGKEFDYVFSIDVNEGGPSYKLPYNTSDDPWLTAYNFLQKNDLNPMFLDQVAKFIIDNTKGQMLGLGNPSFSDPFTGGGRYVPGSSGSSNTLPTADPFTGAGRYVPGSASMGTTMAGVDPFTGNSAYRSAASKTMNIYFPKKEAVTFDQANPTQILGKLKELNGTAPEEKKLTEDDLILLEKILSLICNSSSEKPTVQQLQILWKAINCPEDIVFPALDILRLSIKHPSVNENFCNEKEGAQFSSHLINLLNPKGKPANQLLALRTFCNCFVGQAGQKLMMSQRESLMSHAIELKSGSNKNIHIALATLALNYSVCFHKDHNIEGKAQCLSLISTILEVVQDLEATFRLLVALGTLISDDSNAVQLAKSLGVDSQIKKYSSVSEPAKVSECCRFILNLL
UniProt Q8WUA2: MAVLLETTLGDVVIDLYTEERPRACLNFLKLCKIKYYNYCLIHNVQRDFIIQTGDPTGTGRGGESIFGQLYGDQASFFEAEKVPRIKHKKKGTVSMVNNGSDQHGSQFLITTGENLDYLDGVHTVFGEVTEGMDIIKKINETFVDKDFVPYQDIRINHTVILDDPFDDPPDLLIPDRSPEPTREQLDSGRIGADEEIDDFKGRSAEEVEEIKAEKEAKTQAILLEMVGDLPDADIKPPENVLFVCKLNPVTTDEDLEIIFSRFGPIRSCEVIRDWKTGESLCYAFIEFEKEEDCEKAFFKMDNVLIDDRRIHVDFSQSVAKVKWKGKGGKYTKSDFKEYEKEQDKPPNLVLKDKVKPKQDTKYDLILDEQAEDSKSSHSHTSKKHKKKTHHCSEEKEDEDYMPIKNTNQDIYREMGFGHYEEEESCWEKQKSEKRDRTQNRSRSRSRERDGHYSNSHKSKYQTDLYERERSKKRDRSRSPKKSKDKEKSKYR
UniProt Q15181: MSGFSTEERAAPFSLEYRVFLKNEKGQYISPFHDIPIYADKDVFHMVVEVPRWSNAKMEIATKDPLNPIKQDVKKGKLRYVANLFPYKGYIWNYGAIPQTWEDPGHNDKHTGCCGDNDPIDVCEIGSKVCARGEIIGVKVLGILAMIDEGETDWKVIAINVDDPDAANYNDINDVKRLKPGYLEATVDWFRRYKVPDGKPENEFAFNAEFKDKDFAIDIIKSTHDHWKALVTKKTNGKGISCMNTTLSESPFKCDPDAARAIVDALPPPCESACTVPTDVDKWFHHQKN
UniProt O15160, whole entry: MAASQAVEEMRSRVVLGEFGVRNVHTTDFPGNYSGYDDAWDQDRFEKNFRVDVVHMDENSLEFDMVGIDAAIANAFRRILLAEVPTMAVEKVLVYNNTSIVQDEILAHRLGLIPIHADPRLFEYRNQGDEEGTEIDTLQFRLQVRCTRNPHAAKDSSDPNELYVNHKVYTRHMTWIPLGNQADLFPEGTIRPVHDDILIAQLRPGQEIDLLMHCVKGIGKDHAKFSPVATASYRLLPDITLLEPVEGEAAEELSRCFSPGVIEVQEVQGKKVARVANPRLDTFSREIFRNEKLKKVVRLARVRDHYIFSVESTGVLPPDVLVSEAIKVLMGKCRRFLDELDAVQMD
UniProt O95707: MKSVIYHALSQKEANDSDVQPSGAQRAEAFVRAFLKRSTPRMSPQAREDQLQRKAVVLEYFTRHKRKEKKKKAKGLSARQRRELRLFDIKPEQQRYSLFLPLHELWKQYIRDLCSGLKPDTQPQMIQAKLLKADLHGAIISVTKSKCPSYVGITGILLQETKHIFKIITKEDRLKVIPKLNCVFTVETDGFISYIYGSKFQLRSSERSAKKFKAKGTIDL
UniProt Q01970, whole entry: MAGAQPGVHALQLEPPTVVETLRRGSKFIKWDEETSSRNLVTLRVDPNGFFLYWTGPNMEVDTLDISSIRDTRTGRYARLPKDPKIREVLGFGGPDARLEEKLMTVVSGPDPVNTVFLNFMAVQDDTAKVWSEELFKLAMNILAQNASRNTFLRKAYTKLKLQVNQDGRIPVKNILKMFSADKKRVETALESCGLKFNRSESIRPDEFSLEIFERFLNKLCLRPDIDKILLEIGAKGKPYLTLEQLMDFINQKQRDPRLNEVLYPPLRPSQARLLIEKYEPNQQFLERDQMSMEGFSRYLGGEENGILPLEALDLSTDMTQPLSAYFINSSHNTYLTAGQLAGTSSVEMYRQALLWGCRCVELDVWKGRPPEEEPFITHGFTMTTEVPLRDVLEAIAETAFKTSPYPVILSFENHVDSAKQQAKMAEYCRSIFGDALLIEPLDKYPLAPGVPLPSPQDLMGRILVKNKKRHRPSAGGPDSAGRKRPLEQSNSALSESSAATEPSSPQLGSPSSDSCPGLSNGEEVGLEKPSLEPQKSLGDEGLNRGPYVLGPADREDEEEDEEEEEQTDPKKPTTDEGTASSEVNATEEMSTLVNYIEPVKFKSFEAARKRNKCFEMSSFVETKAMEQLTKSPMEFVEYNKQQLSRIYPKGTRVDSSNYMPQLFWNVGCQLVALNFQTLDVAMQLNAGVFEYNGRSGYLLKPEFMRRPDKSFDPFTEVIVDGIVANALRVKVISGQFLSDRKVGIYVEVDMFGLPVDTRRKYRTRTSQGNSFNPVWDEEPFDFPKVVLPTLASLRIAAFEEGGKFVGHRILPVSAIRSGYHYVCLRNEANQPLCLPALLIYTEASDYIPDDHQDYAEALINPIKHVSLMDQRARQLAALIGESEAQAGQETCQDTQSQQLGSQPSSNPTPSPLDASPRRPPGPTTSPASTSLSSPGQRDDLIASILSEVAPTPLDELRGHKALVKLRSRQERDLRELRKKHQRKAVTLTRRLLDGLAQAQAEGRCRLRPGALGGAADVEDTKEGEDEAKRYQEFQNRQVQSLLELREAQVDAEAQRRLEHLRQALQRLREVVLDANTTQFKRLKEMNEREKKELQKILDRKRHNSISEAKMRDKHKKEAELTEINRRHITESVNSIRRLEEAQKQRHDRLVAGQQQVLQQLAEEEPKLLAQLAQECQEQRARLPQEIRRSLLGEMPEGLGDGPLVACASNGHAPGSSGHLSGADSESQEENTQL
UniProt Q8WUB8: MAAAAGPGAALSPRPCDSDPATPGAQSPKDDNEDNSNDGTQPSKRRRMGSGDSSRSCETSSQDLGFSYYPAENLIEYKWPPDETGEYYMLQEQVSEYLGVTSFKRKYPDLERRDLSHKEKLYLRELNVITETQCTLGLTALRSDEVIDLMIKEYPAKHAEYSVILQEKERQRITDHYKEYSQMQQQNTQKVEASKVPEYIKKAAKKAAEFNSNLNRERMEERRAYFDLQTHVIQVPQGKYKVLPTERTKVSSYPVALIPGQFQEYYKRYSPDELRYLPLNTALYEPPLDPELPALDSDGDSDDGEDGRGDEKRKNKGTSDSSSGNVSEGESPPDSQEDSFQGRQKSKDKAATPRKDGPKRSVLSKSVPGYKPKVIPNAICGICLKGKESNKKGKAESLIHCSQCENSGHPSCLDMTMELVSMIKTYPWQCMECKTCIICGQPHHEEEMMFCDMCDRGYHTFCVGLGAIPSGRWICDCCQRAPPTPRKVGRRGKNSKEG
UniProt Q8NDX5: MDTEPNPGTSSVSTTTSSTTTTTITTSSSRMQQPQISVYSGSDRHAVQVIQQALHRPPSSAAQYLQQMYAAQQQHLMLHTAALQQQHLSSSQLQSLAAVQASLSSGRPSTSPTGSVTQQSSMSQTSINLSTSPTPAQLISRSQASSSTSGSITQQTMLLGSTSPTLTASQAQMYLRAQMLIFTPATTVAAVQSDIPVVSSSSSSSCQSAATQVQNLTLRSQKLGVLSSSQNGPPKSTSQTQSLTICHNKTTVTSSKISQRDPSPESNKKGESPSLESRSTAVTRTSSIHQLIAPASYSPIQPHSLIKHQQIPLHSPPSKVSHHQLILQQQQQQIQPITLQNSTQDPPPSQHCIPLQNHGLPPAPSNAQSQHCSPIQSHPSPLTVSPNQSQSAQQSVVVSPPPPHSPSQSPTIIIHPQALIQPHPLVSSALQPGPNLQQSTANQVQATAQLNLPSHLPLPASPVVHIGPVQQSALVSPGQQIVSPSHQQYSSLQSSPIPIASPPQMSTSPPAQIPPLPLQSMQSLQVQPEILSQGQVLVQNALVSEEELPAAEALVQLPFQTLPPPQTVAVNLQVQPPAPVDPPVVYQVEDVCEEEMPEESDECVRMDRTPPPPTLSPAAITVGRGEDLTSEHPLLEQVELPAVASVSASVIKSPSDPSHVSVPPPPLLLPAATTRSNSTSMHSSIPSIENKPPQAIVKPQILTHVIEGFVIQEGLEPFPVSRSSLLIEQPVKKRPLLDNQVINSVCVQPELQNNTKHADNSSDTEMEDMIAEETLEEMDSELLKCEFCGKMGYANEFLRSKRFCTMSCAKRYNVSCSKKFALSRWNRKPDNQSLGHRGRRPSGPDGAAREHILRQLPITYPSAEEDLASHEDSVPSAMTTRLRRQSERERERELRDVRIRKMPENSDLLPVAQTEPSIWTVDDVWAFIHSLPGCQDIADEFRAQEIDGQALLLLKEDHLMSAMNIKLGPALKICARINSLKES
UniProt Q96CS7: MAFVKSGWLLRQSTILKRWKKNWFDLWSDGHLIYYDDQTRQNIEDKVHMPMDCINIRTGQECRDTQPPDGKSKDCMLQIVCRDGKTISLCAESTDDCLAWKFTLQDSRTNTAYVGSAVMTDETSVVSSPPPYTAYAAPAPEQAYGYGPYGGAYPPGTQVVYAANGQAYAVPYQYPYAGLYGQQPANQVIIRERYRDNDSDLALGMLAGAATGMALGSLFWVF
UniProt Q06830: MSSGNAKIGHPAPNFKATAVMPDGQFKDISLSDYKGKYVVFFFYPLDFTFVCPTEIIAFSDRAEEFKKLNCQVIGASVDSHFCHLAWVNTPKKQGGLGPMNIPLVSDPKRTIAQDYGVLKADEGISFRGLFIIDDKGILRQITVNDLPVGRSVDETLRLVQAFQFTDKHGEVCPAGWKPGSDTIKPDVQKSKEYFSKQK
UniProt Q99575: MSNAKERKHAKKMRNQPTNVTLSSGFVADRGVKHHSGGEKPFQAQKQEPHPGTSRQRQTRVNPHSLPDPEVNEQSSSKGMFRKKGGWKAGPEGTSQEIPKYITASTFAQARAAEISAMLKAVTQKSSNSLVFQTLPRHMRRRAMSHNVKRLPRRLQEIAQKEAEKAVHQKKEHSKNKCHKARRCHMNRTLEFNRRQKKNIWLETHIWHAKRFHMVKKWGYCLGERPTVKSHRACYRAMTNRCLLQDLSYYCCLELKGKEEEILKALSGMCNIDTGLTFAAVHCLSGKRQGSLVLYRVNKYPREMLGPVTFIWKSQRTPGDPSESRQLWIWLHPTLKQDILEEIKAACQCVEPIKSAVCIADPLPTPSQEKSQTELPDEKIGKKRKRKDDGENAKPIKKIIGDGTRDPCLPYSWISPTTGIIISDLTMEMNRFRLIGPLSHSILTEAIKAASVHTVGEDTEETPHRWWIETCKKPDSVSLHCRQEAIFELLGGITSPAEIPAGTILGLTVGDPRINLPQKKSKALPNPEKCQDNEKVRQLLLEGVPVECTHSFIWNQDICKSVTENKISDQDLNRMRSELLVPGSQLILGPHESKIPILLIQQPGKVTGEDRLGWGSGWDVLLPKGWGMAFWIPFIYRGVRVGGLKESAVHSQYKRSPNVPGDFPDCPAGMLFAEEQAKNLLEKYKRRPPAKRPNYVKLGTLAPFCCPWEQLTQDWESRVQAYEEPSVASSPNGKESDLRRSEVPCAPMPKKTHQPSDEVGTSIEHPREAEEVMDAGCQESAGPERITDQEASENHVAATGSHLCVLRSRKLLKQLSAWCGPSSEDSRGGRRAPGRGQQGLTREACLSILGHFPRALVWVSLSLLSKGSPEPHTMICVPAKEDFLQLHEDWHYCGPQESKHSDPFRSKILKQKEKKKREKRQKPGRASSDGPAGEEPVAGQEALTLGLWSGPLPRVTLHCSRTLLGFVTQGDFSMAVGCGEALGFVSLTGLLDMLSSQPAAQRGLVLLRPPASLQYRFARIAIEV

compound: Nc1nc2c(ncn2[C@@H]2O[C@H](COP(=O)(O)OP(=O)(O)OP(=O)(O)O)[C@@H](O)[C@H]2O)c(=O)[nH]1; assay: dose-dependent thermal stabilisation call (2D-TPP, DLPTP, 10% FDR) (binary (1 = stabilised)); higher = stabilised by the compound; conditions: system: Jurkat gel-filtered lysate; concentration range 1-500 µM
Protocol: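 2D thermal proteome profiling in gel-filtered Jurkat E6.1 lysate (2 mg/ml) treated with NaGTP (0, 1, 10, 100, 500 uM) for 10 min at room temperature, then heated 3 min at one of 12 temperatures (42-63.9 C). Soluble protein was quantified by TMT10 MS. The value is the DLPTP call of the paper: dose-dependent thermal stabilisation over all temperatures at 10% FDR (F-test of a dose-response against a flat model); one experiment, one call per tested protein.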

Target | dose-dependent thermal stabilisation call
PGM2 (UniProt Q96G03) | inactive: 0
PPP1R18 (UniProt Q6NYC8) | inactive: 0
PNPO (UniProt Q9NVS9) | inactive: 0
PLAA (UniProt Q9Y263) | inactive: 0
PCYT1A (UniProt P49585) | inactive: 0
PPIL4 (UniProt Q8WUA2) | inactive: 0
PPP1R9B (UniProt Q96SB3) | inactive: 0
PIP4K2A (UniProt P48426) | inactive: 0
PPA1 (UniProt Q15181) | inactive: 0
POLR1C (UniProt O15160) | inactive: 0
POP4 (UniProt O95707) | inactive: 0
PPIP5K2 (UniProt O43314) | active: 1
PPP6R3 (UniProt Q5H9R7) | inactive: 0
PFKP (UniProt Q01813) | active: 1
PKM (UniProt P14618) | inactive: 0
PLCL2 (UniProt Q9UPR0) | inactive: 0
PDCL3 (UniProt Q9H2J4) | inactive: 0
PES1 (UniProt O00541) | active: 1
PDLIM1 (UniProt O00151) | inactive: 0
PLCB3 (UniProt Q01970) | inactive: 0

Target | dose-dependent thermal stabilisation call
PKN1 (UniProt Q16512) | active: 1
PHF10 (UniProt Q8WUB8) | inactive: 0
PDLIM2 (UniProt Q96JY6) | inactive: 0
PCNP (UniProt Q8WW12) | inactive: 0
PHAX (UniProt Q9H814) | inactive: 0
POU2F1 (UniProt P14859) | inactive: 0
PMS2 (UniProt P54278) | active: 1
PHC3 (UniProt Q8NDX5) | inactive: 0
PDCD2 (UniProt Q16342) | active: 1
PLEKHB2 (UniProt Q96CS7) | inactive: 0
PMS1 (UniProt P54277) | inactive: 0
PRDX1 (UniProt Q06830) | inactive: 0
POP1 (UniProt Q99575) | inactive: 0
PDCD4 (UniProt Q53EL6) | inactive: 0
PIK3R5 (UniProt Q8WYR1) | inactive: 0
POLR2M (UniProt P0CAP2) | inactive: 0
PLEKHA5 (UniProt Q9HAU0) | inactive: 0
PLCL1 (UniProt Q15111) | inactive: 0
PHF14 (UniProt O94880) | inactive: 0
PPP2R3B (UniProt Q9Y5P8) | inactive: 0

Reformatted: entries from further up.
Target,dose-dependent thermal stabilisation call
PHF10 (UniProt Q8WUB8),inactive: 0
PRDX1 (UniProt Q06830),inactive: 0
